Data on one substance can be found in publication PMC11617872.

Amino acid sequences for entries named in this document (tags omitted).
UniProt P25054: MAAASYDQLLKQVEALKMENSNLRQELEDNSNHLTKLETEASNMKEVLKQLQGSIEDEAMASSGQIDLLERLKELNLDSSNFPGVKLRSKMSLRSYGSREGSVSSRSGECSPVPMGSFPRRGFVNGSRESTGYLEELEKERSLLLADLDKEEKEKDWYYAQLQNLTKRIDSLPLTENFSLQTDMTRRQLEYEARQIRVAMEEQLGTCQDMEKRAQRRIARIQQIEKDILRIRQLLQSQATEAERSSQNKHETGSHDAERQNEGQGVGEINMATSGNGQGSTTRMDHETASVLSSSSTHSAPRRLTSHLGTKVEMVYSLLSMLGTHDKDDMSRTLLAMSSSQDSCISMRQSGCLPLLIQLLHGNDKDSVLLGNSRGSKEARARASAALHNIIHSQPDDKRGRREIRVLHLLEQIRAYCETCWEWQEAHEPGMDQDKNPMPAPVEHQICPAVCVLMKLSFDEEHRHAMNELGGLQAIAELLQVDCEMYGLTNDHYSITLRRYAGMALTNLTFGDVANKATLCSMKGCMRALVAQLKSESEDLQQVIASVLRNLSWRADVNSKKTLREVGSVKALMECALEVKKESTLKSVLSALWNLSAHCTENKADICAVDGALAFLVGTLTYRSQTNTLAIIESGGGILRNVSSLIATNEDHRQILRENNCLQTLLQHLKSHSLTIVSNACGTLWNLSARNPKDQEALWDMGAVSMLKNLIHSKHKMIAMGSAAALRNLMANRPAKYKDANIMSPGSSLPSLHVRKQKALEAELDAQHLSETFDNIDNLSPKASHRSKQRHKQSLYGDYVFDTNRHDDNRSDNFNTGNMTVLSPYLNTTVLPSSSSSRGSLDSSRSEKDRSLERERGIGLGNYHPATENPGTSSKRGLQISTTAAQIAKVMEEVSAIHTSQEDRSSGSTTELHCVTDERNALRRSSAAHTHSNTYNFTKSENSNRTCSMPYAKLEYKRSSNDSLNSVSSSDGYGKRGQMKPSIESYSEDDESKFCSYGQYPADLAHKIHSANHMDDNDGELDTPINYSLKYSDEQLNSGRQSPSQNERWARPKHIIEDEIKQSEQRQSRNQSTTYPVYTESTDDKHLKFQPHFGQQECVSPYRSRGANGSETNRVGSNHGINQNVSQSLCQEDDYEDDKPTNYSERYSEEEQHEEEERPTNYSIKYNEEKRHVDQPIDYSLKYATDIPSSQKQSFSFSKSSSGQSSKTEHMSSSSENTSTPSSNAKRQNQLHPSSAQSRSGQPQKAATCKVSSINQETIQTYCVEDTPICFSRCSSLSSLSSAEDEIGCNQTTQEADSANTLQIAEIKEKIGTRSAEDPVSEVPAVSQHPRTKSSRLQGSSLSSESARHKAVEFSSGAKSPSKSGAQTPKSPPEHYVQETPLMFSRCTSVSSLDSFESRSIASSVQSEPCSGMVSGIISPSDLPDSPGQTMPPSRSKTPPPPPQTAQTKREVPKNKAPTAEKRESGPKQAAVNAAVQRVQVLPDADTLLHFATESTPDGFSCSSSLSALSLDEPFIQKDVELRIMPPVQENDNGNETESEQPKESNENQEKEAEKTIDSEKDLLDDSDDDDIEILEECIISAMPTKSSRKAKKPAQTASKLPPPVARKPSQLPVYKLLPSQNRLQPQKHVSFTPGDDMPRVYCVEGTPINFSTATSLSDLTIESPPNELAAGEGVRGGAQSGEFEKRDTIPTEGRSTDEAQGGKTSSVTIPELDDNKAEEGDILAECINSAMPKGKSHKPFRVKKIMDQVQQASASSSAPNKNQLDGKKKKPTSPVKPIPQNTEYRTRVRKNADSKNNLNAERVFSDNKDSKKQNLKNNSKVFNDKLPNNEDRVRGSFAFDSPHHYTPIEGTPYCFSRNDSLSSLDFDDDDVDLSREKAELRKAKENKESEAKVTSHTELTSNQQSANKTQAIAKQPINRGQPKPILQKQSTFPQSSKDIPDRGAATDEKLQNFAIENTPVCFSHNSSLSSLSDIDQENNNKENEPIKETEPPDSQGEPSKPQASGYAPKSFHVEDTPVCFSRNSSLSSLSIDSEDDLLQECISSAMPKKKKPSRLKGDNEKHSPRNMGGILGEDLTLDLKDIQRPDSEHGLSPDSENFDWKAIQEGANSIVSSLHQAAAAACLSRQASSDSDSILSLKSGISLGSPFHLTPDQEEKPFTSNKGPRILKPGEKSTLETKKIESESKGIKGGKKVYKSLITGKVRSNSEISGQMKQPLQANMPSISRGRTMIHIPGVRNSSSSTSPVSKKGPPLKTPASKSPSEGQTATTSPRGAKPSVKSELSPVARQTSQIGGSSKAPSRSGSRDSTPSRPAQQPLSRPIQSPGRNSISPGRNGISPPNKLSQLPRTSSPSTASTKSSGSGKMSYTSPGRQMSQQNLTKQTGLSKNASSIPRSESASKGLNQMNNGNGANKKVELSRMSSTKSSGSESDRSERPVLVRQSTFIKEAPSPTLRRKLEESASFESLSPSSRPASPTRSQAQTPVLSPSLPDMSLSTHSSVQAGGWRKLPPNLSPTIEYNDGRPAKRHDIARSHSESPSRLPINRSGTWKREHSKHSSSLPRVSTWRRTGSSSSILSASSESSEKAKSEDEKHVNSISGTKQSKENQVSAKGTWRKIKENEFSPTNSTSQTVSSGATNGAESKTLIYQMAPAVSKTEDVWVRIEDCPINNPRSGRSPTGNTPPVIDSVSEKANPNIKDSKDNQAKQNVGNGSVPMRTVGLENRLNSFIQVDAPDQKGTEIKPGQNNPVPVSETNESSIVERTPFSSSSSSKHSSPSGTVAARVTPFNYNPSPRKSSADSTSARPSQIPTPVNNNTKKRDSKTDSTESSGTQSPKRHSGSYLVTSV
UniProt O00139: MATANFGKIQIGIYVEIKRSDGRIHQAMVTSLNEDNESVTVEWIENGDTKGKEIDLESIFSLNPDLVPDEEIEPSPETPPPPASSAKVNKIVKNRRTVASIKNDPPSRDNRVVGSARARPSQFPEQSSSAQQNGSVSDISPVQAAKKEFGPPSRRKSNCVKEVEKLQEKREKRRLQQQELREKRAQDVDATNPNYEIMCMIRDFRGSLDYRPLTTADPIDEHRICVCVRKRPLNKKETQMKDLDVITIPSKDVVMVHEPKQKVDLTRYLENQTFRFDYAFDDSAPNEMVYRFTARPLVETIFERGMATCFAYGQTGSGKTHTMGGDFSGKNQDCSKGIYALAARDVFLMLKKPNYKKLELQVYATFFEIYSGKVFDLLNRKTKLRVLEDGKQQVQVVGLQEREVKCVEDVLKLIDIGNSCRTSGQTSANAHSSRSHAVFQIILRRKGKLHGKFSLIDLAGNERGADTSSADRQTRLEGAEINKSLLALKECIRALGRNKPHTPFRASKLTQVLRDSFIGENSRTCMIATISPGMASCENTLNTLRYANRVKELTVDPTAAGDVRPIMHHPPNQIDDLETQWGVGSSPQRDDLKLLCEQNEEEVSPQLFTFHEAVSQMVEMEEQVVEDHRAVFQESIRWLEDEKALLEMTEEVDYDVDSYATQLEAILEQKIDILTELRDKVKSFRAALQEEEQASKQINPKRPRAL

Results are given in words; binding and its absence hold for the method and conditions named. Binding seen in cells or lysates may run through a third protein. Here binding means that the protein was enriched with, or labelled near, the bait; the list need not be complete.

This test has as its target Bio-GFP-tagged APC full length (human) (UniProt P25054). Nature of the test: affinity purification with mass spectrometry; streptavidin beads (Dynabeads M-280) pull-down of Bio-GFP-APC full length co-expressed with BirA from HEK293T extracts; SDS-PAGE lane analysed by mass spectrometry.

“KIF2A (endogenous, found in the APC pull-down) (from UniProt O00139 1-706)”: the binding result is “binds”.
